These are yes or no findings as the source states them, for the method shown. Binding seen in cells or lysates may run through a third protein. A yes stands for co-enrichment or nearness to the bait. Other partners may have been found.
Target: Myc-SKP2 (S-phase kinase-associated protein 2) (UniProt Q13309)
Test: affinity purification with mass spectrometry; lysates of 293 T cells stably transfected with vector or Myc-SKP2, immunoprecipitated with Myc antibody, SDS-PAGE, bands excised from Coomassie staining

The chains behind the UniProt entries cited, without tags or fusion partners.
UniProt Q13309: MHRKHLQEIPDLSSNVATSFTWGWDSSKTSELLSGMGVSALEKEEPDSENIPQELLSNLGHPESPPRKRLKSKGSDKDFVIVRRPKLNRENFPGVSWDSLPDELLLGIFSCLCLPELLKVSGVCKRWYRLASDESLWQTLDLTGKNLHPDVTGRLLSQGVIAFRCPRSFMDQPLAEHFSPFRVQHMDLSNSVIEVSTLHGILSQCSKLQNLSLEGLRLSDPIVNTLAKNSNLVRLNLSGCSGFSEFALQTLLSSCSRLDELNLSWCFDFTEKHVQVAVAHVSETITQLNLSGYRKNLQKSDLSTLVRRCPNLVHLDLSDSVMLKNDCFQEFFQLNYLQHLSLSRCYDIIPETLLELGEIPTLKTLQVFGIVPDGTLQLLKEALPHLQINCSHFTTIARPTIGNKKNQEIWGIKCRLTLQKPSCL

B1: Programmed cell death protein 4 (PDCD4), endogenous (protein, UniProt Q53EL6 1-469)
chain: MDVENEQILNVNPADPDNLSDSLFSGDEENAGTEEIKNEINGNWISASSINEARINAKAKRRLRKNSSRDSGRGDSVSDSGSDALRSGLTVPTSPKGRLLDRRSRSGKGRGLPKKGGAGGKGVWGTPGQVYDVEEVDVKDPNYDDDQENCVYETVVLPLDERAFEKTLTPIIQEYFEHGDTNEVAEMLRDLNLGEMKSGVPVLAVSLALEGKASHREMTSKLLSDLCGTVMSTTDVEKSFDKLLKDLPELALDTPRAPQLVGQFIARAVGDGILCNTYIDSYKGTVDCVQARAALDKATVLLSMSKGGKRKDSVWGSGGGQQSVNHLVKEIDMLLKEYLLSGDISEAEHCLKELEVPHFHHELVYEAIIMVLESTGESTFKMILDLLKSLWKSSTITVDQMKRGYERIYNEIPDINLDVPHSYSVLERFVEECFQAGIISKQLRDLCPSRGRKRFVSEGDGGRLKPESY
- binding: binds
